Measurements reported in PubChem BioAssay AID686943 (Drosophila RNAi Screening Center, 2013).
Screen: 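Fly genes whose loss alters ERK activation after insulin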 (primary screen). System: Drosophila S2R+ haemocyte-like cells expressing YFP-tagged ERK (Rolled). Reagents: long dsRNA against Drosophila genes. Challenge: insulin stimulation versus unstimulated cells; dose and duration not given. Read-out: 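Antibody staining for doubly phosphorylated ERK divided by ERK-YFP signal, as plate z-scores, in insulin-treated and untreated cells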. Reading the numbers: replicate 1, z-score of dpERK with insulin: higher = more active ERK per ERK-YFP after insulin.
In all, the deposit lists about 23,000 reagents; this is a random part of those with a known target gene and a result. 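Extra replicates exist only for a retested subset of genes; insulin dose and duration not given; both raised and lowered dpERK matter.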 Not all columns of the deposit are shown. Not stated in the record: the amount of reagent, the time to read-out.

replicate 1, z-score of dpERK with insulin, by gene and reagent
CG9953: DRSC11106 -0.29
nompA: DRSC06329 -0.27
CG5162: DRSC19935 -1.07
vg: DRSC07715 1.48; DRSC22669 0.26
Wnk: DRSC11813 -0.11
Ercc1: DRSC07424 -1.42
CG5181: DRSC02825 0.6
CG6431: DRSC02956 0.93
CG4757: DRSC14130 -0.46
mthl3: DRSC06997 -0.5
Nepl14: DRSC15631 -1.01
CG18547: DRSC15345 1.02
shot: DRSC05459 -3.98; DRSC05460 -1.46; DRSC07682 -0.1
pyr: DRSC06319 1.2; DRSC22520 0.72
sowah: DRSC09186 -0.46; DRSC09758 -0.75
CG13705: DRSC08314 0.94; DRSC22691 0.72
flr: DRSC09787 0.19
CG2211: DRSC08559 0.05
Grip128: DRSC20167 0.51
CG9951: DRSC11105 0.42
Nha1: DRSC02109 0.33
Pgant9: DRSC05621 0.58; DRSC06584 0.14; DRSC07185 -0.12; DRSC07186 -0.92; DRSC07187 1.1; DRSC07189 -0.25; DRSC21807 1.09; DRSC22076 -0.19
Mst84Db: DRSC12542 0.12; DRSC12598 -1.16
CG5906: DRSC10557 1.48
otp: DRSC04050 -1.76; DRSC04707 0.49
CG33476: DRSC22888 1.86
su(w[a]): DRSC18840 -0.32
uncNacbeta: DRSC00326 0.8
Porin2: DRSC02584 1.08
Grip75: DRSC03337 -0.32
CG9928: DRSC03274 0.51
PsGEF: DRSC18596 0.52; DRSC18600 -0.8; DRSC18601 -2.07
RpS27A: DRSC03421 -1.36
CG40245 (retired record): DRSC21012 -1.17
bel: DRSC16555 0.11
CG32284: DRSC08025 -0.71
CG15545: DRSC15083 0.59
LysRS: DRSC17824 1.37
Pgant8: DRSC10801 0.34
Cpr92A: DRSC16000 1.93
